Measured values reported in the supplement of paper PMC6411743.
± gives the standard deviation of the averaged measurements. This is a selection; strong and weak results do not stand in their true shares.

Sequences of proteins named here, by UniProt entry; tags and fusion partners are left off. A change or cut given only in a name is not applied to a line headed by its entry.
UniProt O43598: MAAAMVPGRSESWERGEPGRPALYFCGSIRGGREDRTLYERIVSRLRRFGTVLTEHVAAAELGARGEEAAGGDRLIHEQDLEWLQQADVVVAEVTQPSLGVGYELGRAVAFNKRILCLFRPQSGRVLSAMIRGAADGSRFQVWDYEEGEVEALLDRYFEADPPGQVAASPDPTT
UniProt O14497, whole entry: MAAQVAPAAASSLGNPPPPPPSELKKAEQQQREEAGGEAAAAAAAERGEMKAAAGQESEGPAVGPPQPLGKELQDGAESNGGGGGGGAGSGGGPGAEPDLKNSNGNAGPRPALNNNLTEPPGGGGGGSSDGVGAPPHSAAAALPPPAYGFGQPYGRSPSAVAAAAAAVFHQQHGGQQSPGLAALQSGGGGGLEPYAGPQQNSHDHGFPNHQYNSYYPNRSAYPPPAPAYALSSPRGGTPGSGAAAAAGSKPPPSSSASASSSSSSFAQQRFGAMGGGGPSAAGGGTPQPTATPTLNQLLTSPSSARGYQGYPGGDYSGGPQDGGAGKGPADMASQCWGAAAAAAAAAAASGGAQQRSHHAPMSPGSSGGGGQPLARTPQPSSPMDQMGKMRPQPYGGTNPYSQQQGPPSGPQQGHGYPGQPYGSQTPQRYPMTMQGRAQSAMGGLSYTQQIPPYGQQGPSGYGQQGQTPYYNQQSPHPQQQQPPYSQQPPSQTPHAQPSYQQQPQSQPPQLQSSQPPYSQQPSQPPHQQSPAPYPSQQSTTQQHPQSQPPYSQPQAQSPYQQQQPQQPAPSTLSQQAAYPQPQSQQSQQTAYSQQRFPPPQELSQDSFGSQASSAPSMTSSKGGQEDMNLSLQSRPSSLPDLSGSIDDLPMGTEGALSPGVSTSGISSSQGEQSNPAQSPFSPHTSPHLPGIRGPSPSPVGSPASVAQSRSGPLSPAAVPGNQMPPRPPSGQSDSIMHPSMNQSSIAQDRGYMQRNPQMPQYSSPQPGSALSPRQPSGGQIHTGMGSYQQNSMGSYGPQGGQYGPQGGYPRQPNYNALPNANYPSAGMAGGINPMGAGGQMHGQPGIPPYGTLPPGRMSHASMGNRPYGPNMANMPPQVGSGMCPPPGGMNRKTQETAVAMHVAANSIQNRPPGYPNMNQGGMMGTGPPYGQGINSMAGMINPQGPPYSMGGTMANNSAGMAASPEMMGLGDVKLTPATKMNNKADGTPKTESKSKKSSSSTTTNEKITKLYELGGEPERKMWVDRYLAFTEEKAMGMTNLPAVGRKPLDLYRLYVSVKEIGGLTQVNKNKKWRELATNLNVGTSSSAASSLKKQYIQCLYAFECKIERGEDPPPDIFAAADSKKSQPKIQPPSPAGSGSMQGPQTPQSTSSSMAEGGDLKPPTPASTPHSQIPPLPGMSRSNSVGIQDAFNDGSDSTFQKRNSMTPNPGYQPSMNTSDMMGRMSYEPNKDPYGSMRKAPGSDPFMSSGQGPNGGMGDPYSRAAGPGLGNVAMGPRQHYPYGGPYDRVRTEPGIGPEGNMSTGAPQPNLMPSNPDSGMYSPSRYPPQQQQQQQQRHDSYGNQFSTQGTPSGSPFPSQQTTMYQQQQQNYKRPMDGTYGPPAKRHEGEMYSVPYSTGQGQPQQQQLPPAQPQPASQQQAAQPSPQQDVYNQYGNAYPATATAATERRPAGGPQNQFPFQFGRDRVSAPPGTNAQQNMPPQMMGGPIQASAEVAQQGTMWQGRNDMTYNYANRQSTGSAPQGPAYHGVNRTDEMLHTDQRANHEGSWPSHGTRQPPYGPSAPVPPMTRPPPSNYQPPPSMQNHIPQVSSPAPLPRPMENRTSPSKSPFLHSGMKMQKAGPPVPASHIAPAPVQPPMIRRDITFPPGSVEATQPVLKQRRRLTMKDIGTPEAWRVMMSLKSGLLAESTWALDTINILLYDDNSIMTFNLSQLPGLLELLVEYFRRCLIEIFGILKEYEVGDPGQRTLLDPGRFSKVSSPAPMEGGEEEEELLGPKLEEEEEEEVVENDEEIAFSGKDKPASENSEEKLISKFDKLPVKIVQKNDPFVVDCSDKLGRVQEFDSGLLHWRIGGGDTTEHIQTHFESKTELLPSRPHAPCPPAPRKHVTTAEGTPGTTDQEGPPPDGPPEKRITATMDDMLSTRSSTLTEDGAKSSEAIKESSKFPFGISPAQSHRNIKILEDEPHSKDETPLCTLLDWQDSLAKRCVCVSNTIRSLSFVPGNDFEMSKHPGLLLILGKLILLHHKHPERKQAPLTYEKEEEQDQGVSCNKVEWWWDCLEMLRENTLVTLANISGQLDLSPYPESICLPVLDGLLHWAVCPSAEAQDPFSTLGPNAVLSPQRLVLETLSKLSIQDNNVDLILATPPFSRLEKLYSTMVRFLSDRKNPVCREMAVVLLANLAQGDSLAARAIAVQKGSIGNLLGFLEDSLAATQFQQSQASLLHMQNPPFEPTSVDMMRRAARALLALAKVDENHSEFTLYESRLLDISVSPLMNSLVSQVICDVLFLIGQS
UniProt O14965: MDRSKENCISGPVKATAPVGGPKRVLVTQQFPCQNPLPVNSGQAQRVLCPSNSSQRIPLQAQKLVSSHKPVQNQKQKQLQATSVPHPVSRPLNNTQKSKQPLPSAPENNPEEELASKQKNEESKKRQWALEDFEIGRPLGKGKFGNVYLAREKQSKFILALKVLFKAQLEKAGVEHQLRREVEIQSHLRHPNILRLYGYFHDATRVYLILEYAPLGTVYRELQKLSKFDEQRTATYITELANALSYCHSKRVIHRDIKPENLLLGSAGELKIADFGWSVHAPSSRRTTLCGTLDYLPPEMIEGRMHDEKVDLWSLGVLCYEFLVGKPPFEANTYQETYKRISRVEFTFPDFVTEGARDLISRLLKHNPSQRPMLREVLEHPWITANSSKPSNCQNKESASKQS
UniProt O60244: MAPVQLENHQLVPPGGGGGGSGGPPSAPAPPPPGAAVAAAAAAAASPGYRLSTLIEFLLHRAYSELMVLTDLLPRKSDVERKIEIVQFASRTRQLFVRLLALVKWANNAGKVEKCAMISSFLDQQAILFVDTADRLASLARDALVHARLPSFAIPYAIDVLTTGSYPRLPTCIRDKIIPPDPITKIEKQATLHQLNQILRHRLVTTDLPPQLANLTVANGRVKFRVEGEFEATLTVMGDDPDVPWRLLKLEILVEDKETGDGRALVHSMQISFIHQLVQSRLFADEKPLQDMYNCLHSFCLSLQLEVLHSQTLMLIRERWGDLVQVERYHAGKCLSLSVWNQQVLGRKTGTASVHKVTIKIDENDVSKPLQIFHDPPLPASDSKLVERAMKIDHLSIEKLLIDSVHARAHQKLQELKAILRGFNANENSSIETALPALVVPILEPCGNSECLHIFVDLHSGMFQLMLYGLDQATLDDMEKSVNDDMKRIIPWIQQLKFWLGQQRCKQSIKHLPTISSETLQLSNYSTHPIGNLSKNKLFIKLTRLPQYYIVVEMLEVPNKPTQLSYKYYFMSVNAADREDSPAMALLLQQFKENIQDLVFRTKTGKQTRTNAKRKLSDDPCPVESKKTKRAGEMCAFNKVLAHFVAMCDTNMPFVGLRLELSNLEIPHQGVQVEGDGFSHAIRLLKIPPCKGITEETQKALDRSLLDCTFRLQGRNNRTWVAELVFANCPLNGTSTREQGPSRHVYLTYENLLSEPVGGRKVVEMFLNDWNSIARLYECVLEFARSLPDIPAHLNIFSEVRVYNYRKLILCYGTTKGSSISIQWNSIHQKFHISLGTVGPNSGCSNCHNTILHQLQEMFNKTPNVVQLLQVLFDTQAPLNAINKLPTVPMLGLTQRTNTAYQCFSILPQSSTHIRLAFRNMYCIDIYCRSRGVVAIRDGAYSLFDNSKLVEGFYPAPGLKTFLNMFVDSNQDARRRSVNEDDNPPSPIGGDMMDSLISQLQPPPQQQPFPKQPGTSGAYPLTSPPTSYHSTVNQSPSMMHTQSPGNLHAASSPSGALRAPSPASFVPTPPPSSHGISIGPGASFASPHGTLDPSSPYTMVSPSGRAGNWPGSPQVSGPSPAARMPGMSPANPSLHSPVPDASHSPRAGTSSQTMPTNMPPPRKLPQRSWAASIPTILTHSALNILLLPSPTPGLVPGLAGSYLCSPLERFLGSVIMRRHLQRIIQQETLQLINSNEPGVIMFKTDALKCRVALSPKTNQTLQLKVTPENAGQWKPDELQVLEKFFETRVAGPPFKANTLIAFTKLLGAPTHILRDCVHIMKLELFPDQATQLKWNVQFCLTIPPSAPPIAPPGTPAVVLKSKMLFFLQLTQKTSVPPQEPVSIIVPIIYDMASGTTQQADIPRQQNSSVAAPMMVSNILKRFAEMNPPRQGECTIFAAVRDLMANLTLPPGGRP
UniProt O00115: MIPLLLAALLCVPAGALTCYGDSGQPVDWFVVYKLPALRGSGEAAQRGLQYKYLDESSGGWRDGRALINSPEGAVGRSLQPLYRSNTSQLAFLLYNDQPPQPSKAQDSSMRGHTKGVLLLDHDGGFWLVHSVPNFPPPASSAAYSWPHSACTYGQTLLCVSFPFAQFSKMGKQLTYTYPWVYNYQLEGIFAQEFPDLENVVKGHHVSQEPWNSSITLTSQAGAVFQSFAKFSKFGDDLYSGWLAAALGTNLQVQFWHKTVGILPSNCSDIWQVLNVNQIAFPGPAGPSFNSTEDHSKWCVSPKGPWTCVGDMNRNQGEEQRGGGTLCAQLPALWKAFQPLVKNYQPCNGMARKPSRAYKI
UniProt O00217, whole entry: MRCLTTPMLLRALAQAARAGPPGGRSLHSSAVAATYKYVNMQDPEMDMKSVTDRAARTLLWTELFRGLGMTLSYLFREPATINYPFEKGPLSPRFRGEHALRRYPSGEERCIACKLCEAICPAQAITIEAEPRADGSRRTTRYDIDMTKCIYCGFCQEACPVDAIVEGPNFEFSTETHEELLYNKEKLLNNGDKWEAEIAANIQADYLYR
UniProt O43813, whole entry: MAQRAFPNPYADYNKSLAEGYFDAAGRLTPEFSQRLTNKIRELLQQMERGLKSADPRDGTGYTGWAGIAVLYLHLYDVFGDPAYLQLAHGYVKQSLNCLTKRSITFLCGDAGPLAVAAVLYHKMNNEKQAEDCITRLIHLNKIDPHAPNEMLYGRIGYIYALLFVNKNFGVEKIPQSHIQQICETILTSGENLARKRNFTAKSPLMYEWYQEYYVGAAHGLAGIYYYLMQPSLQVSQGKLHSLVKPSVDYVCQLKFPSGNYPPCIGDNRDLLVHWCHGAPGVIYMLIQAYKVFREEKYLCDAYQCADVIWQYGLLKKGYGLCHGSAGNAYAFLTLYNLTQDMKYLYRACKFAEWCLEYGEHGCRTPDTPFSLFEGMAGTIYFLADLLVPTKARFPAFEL
UniProt O60232: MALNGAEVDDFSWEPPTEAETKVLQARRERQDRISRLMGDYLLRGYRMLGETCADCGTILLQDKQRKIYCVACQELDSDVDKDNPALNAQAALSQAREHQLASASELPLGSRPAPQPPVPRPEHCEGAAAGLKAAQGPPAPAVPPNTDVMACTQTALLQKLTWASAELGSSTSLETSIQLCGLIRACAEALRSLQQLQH
UniProt O43683: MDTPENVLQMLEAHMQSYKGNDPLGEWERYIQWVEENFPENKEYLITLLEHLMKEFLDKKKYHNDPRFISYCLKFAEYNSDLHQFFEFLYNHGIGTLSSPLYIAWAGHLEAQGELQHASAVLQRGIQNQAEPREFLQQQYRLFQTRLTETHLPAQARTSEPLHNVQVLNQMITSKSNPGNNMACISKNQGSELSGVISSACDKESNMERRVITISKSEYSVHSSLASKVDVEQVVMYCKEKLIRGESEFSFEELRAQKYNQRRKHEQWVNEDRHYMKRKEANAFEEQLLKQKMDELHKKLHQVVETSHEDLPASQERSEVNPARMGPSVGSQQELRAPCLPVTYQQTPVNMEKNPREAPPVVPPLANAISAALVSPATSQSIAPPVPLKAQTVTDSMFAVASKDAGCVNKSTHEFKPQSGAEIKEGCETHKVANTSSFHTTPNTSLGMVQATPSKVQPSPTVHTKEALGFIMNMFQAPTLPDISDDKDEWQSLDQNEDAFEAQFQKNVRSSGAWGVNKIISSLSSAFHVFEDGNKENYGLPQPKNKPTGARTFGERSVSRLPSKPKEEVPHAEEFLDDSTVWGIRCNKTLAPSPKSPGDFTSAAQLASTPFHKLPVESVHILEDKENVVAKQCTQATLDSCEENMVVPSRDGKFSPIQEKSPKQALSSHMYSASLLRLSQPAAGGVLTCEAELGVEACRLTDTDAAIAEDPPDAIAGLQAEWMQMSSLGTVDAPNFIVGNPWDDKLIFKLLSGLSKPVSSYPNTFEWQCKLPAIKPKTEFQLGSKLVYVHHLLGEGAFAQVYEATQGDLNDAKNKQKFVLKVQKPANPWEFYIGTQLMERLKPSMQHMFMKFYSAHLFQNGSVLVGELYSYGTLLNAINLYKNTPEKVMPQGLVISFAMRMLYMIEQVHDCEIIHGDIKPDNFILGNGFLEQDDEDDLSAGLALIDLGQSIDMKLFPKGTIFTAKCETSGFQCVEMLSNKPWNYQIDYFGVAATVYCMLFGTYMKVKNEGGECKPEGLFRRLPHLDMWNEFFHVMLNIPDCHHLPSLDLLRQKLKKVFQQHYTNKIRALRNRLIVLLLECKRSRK

Compound: Nc1ncnc2c1ncn2[C@@H]1O[C@H](COP(=O)(O)OP(=O)(O)OP(=O)(O)O)[C@@H](O)[C@H]1O [adenosine triphosphate]
Assay: NP40-soluble protein abundance relative to vehicle (solubility fold change) (ratio); higher = more soluble protein in presence of ATP
Outline: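 Jurkat crude lysate (Dounce-homogenised) was treated with eight concentrations from 0.1 to 10 mM for 10 min at room temperature, then 3 min at 37 °C. It was solubilised with 0.8% NP40 and benzonase (60 min, 4 °C) and ultracentrifuged, and the supernatant was TMT-labelled for LC-MS/MS. Intensities were vsn-normalised, and the value is the fold change against the NP40-processed vehicle per replicate, from three independent experiments.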

Target	NP40-soluble protein abundance (concentration: 1mM)	NP40-soluble protein abundance (concentration: 2mM)	NP40-soluble protein abundance (concentration: 4mM)	NP40-soluble protein abundance (concentration: 6mM)	NP40-soluble protein abundance (concentration: 8mM)	NP40-soluble protein abundance (concentration: 10mM)
UniProt O43598 and related entries	0.895 ± 0.018	0.938 ± 0.022	0.889 ± 0.013	0.918 ± 0.025	0.873 ± 0.017	0.865 ± 0.043
M0QZR4 (UniProt Q92888)	1.015 ± 0.0021	1.01 ± 0.015	0.995 ± 0.019	1 ± 0.026	0.996 ± 0.035	1 ± 0.034
SCD (UniProt O00767)	0.93 ± 0.07	0.9234 ± 0.0079	0.894 ± 0.026	0.868 ± 0.067	0.903 ± 0.019	0.935 ± 0.016
B4GAT1 (UniProt O43505)	1.02 ± 0.044	1.03 ± 0.057	1.02 ± 0.029	0.983 ± 0.059	0.989 ± 0.047	0.995 ± 0.055
M0R2B7 and related entries (UniProt P28340)	1.02 ± 0.097	0.99 ± 0.071	0.992 ± 0.052	0.929 ± 0.096	1.03 ± 0.036	0.989 ± 0.04
HIP1 (UniProt O00291)	1.01 ± 0.028	1.07 ± 0.037	1.11 ± 0.073	1.15 ± 0.04	1.11 ± 0.065	1.18 ± 0.02
UniProt O15117-2|O15117-3	0.943 ± 0.046	0.9539 ± 0.002	0.901 ± 0.012	0.9964 ± 0.0088	0.904 ± 0.04	0.9277 ± 0.0011
ZBTB24 (UniProt O43167)	1.01 ± 0.062	1.01 ± 0.03	1.05 ± 0.04	0.961 ± 0.018	0.979 ± 0.048	0.962 ± 0.013
UniProt O00743 and related entries	1 ± 0.13	0.97 ± 0.082	0.95 ± 0.081	0.931 ± 0.12	1 ± 0.062	0.951 ± 0.059
ARID1A (UniProt O14497)	1.02 ± 0.053	0.992 ± 0.05	0.994 ± 0.071	1.02 ± 0.11	0.986 ± 0.058	0.993 ± 0.052
UniProt O15226 and related entries	0.915 ± 0.017	0.909 ± 0.022	0.9456 ± 0.0046	0.994 ± 0.016	1.01 ± 0.016	1.06 ± 0.033
POLRMT (UniProt O00411)	1.09 ± 0.14	1.04 ± 0.026	0.997 ± 0.048	0.98 ± 0.096	1.04 ± 0.062	1.04 ± 0.036
UniProt O14733 and related entries	1.12 ± 0.049	1.15 ± 0.05	1.13 ± 0.037	1.07 ± 0.047	1.06 ± 0.06	1.1 ± 0.042
UniProt O43561-3|O43561 and related entries	0.845 ± 0.12	0.841 ± 0.082	0.876 ± 0.036	0.834 ± 0.13	0.86 ± 0.041	0.782 ± 0.078
UniProt O43150 and related entries	1.05 ± 0.054	1.06 ± 0.035	1.05 ± 0.023	1.02 ± 0.014	1.02 ± 0.016	1.02 ± 0.068
UniProt O14965 and related entries	1.07 ± 0.091	1.06 ± 0.08	1.12 ± 0.054	1.13 ± 0.12	1.1 ± 0.077	1.17 ± 0.056
PGRMC1 (UniProt O00264)	0.944 ± 0.13	0.918 ± 0.11	0.903 ± 0.1	0.904 ± 0.12	0.877 ± 0.047	0.759 ± 0.11
MED14 (UniProt O60244)	1 ± 0.02	1.06 ± 0.036	1.06 ± 0.034	1.03 ± 0.053	1.03 ± 0.05	1.04 ± 0.092
UniProt O14974 and related entries	0.988 ± 0.051	1.01 ± 0.021	0.989 ± 0.012	1.05 ± 0.036	1 ± 0.031	1.01 ± 0.024
UniProt O14775-2|O14775-3	0.882 ± 0.012	0.964 ± 0.038	0.98 ± 0.025	0.987 ± 0.069	0.882 ± 0.02	0.903 ± 0.058

Some values from the entries so far:
NP40-soluble protein abundance (concentration: 4mM), M0QZR4 (UniProt Q92888) reads 0.995 ± 0.019
NP40-soluble protein abundance (concentration: 10mM), ZBTB24 (UniProt O43167) reads 0.962 ± 0.013

An excerpt of these results, with each value named.
HIP1 (UniProt O00291)
  NP40-soluble protein abundance (concentration: 1mM): 1.01 ± 0.028; NP40-soluble protein abundance (concentration: 2mM): 1.07 ± 0.037; NP40-soluble protein abundance (concentration: 4mM): 1.11 ± 0.073; NP40-soluble protein abundance (concentration: 6mM): 1.15 ± 0.04; NP40-soluble protein abundance (concentration: 8mM): 1.11 ± 0.065; NP40-soluble protein abundance (concentration: 10mM): 1.18 ± 0.02
UniProt O14965 and related entries
  NP40-soluble protein abundance (concentration: 1mM): 1.07 ± 0.091; NP40-soluble protein abundance (concentration: 2mM): 1.06 ± 0.08; NP40-soluble protein abundance (concentration: 4mM): 1.12 ± 0.054; NP40-soluble protein abundance (concentration: 6mM): 1.13 ± 0.12; NP40-soluble protein abundance (concentration: 8mM): 1.1 ± 0.077; NP40-soluble protein abundance (concentration: 10mM): 1.17 ± 0.056

Additional results

Target	NP40-soluble protein abundance (concentration: 1mM)	NP40-soluble protein abundance (concentration: 2mM)	NP40-soluble protein abundance (concentration: 4mM)	NP40-soluble protein abundance (concentration: 6mM)	NP40-soluble protein abundance (concentration: 8mM)	NP40-soluble protein abundance (concentration: 10mM)
GMFG (UniProt O60234)	1.04 ± 0.041	0.998 ± 0.063	1.04 ± 0.095	0.984 ± 0.067	1.04 ± 0.1	0.945 ± 0.078
UniProt O43156	0.972 ± 0.076	0.978 ± 0.06	0.966 ± 0.037	0.925 ± 0.086	0.951 ± 0.031	0.964 ± 0.044
UniProt O15530 and related entries	1.03 ± 0.039	1.03 ± 0.035	1.06 ± 0.042	1 ± 0.13	1.02 ± 0.082	1.07 ± 0.021
UBE2L6 (UniProt O14933)	0.898 ± 0.11	0.878 ± 0.067	0.889 ± 0.15	0.85 ± 0.1	0.901 ± 0.073	0.885 ± 0.088
UniProt O43296	0.928 ± 0.077	0.91 ± 0.015	0.913 ± 0.029	0.882 ± 0.11	0.874 ± 0.056	0.842 ± 0.11
UniProt O43379 and related entries	1.04 ± 0.039	1.05 ± 0.012	1.03 ± 0.025	1.01 ± 0.029	1.03 ± 0.038	1.01 ± 0.024
AKR7A2 (UniProt O43488)	0.926 ± 0.046	0.954 ± 0.018	0.946 ± 0.014	0.954 ± 0.033	0.94 ± 0.021	0.911 ± 0.037
LSM1 (UniProt O15116)	1 ± 0.093	1 ± 0.073	1.01 ± 0.11	0.945 ± 0.022	0.985 ± 0.054	0.962 ± 0.098
UniProt O00115 and related entries	0.877 ± 0.055	0.904 ± 0.048	0.868 ± 0.066	0.928 ± 0.05	0.868 ± 0.057	0.821 ± 0.032
SYNJ2 (UniProt O15056)	1.03 ± 0.025	1.01 ± 0.011	1.017 ± 0.0097	0.999 ± 0.035	1.01 ± 0.018	1 ± 0.028
UniProt O14787-2	0.909 ± 0.044	0.965 ± 0.063	0.919 ± 0.024	0.859 ± 0.094	0.879 ± 0.028	0.936 ± 0.019
PDE6D (UniProt O43924)	1.05 ± 0.12	1.01 ± 0.048	0.975 ± 0.051	0.884 ± 0.1	1.01 ± 0.06	0.963 ± 0.071
CLGN (UniProt O14967)	1 ± 0.039	0.994 ± 0.036	0.976 ± 0.039	1.01 ± 0.038	0.968 ± 0.015	0.991 ± 0.03
UniProt O60337 and related entries	1.07 ± 0.073	1.1 ± 0.075	1.03 ± 0.046	1.05 ± 0.048	1.11 ± 0.12	1.1 ± 0.2
TRAPPC3 (UniProt O43617)	0.959 ± 0.017	0.953 ± 0.018	0.95 ± 0.013	0.882 ± 0.033	0.945 ± 0.019	0.873 ± 0.087
DEGS1 (UniProt O15121)	1.04 ± 0.025	0.96 ± 0.064	0.956 ± 0.041	0.9614 ± 0.0059	1.017 ± 0.0065	0.974 ± 0.052
UniProt O00217 and related entries	0.979 ± 0.032	0.929 ± 0.063	0.932 ± 0.047	0.956 ± 0.059	0.947 ± 0.041	0.918 ± 0.036
PRPSAP2 (UniProt O60256)	1.08 ± 0.046	0.982 ± 0.025	1.02 ± 0.059	0.976 ± 0.084	1.04 ± 0.074	1 ± 0.06
NCK2 (UniProt O43639)	0.999 ± 0.04	0.99 ± 0.039	1 ± 0.049	0.988 ± 0.043	0.997 ± 0.04	0.974 ± 0.04
UniProt O00330 and related entries	1.23 ± 0.19	1.02 ± 0.14	0.981 ± 0.15	1.04 ± 0.4	1.01 ± 0.24	0.937 ± 0.19

Target	NP40-soluble protein abundance (concentration: 1mM)	NP40-soluble protein abundance (concentration: 2mM)	NP40-soluble protein abundance (concentration: 4mM)	NP40-soluble protein abundance (concentration: 6mM)	NP40-soluble protein abundance (concentration: 8mM)	NP40-soluble protein abundance (concentration: 10mM)
PRMT5 (UniProt O14744)	1.03 ± 0.049	0.986 ± 0.033	0.96 ± 0.04	0.955 ± 0.015	1.006 ± 0.0091	0.981 ± 0.044
UniProt O00471 and related entries	0.975 ± 0.022	0.977 ± 0.013	0.9468 ± 0.0071	0.951 ± 0.012	0.963 ± 0.016	0.978 ± 0.017
UniProt O43422	1.02 ± 0.098	0.967 ± 0.076	0.948 ± 0.092	0.892 ± 0.072	0.915 ± 0.075	0.903 ± 0.052
UniProt O14530 and related entries	1 ± 0.047	0.956 ± 0.12	0.922 ± 0.13	0.944 ± 0.14	0.93 ± 0.14	0.972 ± 0.098
UniProt O43390 and related entries	1.06 ± 0.062	0.969 ± 0.11	1.06 ± 0.035	1.05 ± 0.11	1.12 ± 0.14	1.24 ± 0.15
GAK (UniProt O14976)	0.987 ± 0.016	1 ± 0.017	1.05 ± 0.044	1.05 ± 0.013	1.06 ± 0.029	1.05 ± 0.016
NDUFA4 (UniProt O00483)	0.912 ± 0.034	0.897 ± 0.042	0.849 ± 0.025	0.867 ± 0.014	0.8942 ± 0.0052	0.834 ± 0.022
KIF1C (UniProt O43896)	1.07 ± 0.047	1.08 ± 0.086	1.1 ± 0.069	1.08 ± 0.023	1.083 ± 0.0017	1.09 ± 0.027
OGT (UniProt O15294)	1.002 ± 0.009	0.979 ± 0.015	1 ± 0.027	0.985 ± 0.017	0.985 ± 0.019	0.979 ± 0.022
LANCL1 (UniProt O43813)	0.962 ± 0.13	0.952 ± 0.1	0.921 ± 0.075	0.867 ± 0.16	0.924 ± 0.046	0.933 ± 0.063
M0R2A0 and related entries (UniProt Q5UCC4)	0.983 ± 0.058	0.979 ± 0.052	0.923 ± 0.072	0.963 ± 0.072	0.942 ± 0.092	0.964 ± 0.08
UniProt O43663 and related entries	1.07 ± 0.034	1.06 ± 0.031	1.12 ± 0.031	1.12 ± 0.035	1.13 ± 0.04	1.1 ± 0.023
UniProt O00442 and related entries	1.04 ± 0.084	1.01 ± 0.071	0.996 ± 0.043	1 ± 0.11	0.984 ± 0.035	0.995 ± 0.057
UniProt O60232	0.939 ± 0.066	0.951 ± 0.079	0.957 ± 0.017	0.983 ± 0.14	0.931 ± 0.033	0.892 ± 0.067
UniProt O43683 and related entries	0.972 ± 0.054	1.02 ± 0.038	0.9948 ± 0.0085	1.03 ± 0.057	0.993 ± 0.033	0.979 ± 0.043
M0R0N0 and related entries (UniProt O95182)	0.979 ± 0.095	0.955 ± 0.12	0.973 ± 0.041	0.988 ± 0.17	0.923 ± 0.06	0.916 ± 0.1
GIPC1 (UniProt O14908)	0.996 ± 0.026	0.996 ± 0.05	0.988 ± 0.041	0.963 ± 0.033	0.961 ± 0.031	0.993 ± 0.035
UniProt O60343 and related entries	1.01 ± 0.029	0.968 ± 0.021	0.966 ± 0.021	0.945 ± 0.044	0.953 ± 0.022	0.959 ± 0.054
KPNA3 (UniProt O00505)	1.05 ± 0.074	1.07 ± 0.058	1.01 ± 0.066	1.07 ± 0.069	1.02 ± 0.11	1.03 ± 0.042
PHGDH (UniProt O43175)	0.921 ± 0.062	0.94 ± 0.031	0.913 ± 0.026	0.963 ± 0.024	0.904 ± 0.025	0.905 ± 0.021
